The text below walks through data of PMC11446795.

The target in the test is C4H-nVenus (Petunia inflata). As to the kind of experiment: split reporter; BiFC with nVenus (bait) and cVenus (prey) fusions co-expressed by agroinfiltration in N. benthamiana leaves with an ER marker (mRFP); confocal microscopy 2-3 days after infiltration.

These are yes or no findings as the source states them, for the method shown. In cells and extracts the contact can be indirect.

B1: CYP71E1 from Sorghum bicolor (negative control of the BiFC assay) (enzyme, UniProt O48958 1-531)
chain: MATTATPQLLGGSVPQQWQTCLLVLLPVLLVSYYLLTSRSRNRSRSGKLGGAPRLPPGPAQLPILGNLHLLGPLPHKNLRELARRYGPVMQLRLGTVPTVVVSSAEAAREVLKVHDVDCCSRPASPGPKRLSYDLKNVGFAPYGEYWREMRKLFALELLSMRRVKAACYAREQEMDRLVADLDRAAASKASIVLNDHVFALTDGIIGTVAFGNIYASKQFAHKERFQHVLDDAMDMMASFSAEDFFPNAAGRLADRLSGFLARRERIFNELDVFFEKVIDQHMDPARPVPDNGGDLVDVLINLCKEHDGTLRFTRDHVKAIVLDTFIGAIDTSSVTILWAMSELMRKPQVLRKAQAEVRAAVGDDKPRVNSEDAAKIPYLKMVVKETLRLHPPATLLVPRETMRDTTICGYDVPANTRVFVNAWAIGRDPASWPAPDEFNPDRFVGSDVDYYGSHFELIPFGAGRRICPGLTMGETNVTFTLANLLYCYDWALPGAMKPEDVSMEETGALTFHRKTPLVVVPTKYKNRRAA
For the molecule B1, the binding entry is reported as “no binding”.
